From PMC4203352
These are yes or no findings as the source states them, for the method shown. In cells and extracts the contact can be indirect. Here binding means that the protein was enriched with, or labelled near, the bait; the list need not be complete. Tags and fused reporters may be left off the sequences shown. One block for each molecule: values may come before it.

By UniProt entry, the sequences of proteins in these tests, tags left out. Residues count along the entry.
UniProt Q8NBS9, residues 33-432: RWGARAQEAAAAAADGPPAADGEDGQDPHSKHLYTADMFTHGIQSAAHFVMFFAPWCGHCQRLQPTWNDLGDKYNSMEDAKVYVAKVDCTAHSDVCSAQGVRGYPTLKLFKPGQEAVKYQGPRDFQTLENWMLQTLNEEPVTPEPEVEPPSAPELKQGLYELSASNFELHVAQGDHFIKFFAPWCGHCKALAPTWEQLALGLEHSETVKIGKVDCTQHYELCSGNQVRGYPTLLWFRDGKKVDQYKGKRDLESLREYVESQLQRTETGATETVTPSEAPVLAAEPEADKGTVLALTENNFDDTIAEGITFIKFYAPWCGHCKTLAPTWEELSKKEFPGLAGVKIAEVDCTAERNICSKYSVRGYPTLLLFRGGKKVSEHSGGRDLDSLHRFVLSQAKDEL

Columns and labels:
[1] = biological target: T1, Txnip, N-terminal tandem Strep/FLAG tag, stably expressed in HEK293F (UniProt Q9H3M7); experiment: affinity purification with mass spectrometry; HEK293F cells stably transduced with Strep/FLAG-Txnip or empty vector, suspension culture; Streptactin resin columns; eluates by SDS-PAGE and mass spectrometry
T1 sequence: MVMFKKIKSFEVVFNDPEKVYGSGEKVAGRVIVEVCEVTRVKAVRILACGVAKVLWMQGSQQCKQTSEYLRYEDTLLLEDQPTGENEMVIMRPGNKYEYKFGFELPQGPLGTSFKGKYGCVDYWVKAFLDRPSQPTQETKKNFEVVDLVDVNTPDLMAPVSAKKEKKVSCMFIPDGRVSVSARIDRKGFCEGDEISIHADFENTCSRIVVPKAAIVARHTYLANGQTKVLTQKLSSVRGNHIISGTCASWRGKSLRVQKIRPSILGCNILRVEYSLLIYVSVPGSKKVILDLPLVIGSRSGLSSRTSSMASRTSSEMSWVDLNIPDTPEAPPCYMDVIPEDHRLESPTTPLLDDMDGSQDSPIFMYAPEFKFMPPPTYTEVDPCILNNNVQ

[2] = biological target: T2, Txnip, N-terminal tandem Strep/FLAG tag, stably expressed in HEK293F, Q9H3M7; experiment: as above; conditions: remark: other sources report otherwise
T2 chain: T1 sequence

binding [1]: binds
Molecule: Pdia15, endogenous (from UniProt Q8NBS9 33-432) (enzyme)

binding [1]: binds
B3: Txn2, endogenous (protein, UniProt Q99757 60-166)
chain: TTFNIQDGPDFQDRVVNSETPVVVDFHAQWCGPCKILGPRLEKMVAKQHGKVVMAKVDIDDHTDLAIEYEVSAVPTVLAMKNGDVVDKFVGIKDEDQLEAFLKKLIG

Further lines, the molecule ahead of its results:

B1: endogenous PDIA6 (enzyme, UniProt Q15084 20-440)
chain: LYSSSDDVIELTPSNFNREVIQSDSLWLVEFYAPWCGHCQRLTPEWKKAATALKDVVKVGAVDADKHHSLGGQYGVQGFPTIKIFGSNKNRPEDYQGGRTGEAIVDAALSALRQLVKDRLGGRSGGYSSGKQGRSDSSSKKDVIELTDDSFDKNVLDSEDVWMVEFYAPWCGHCKNLEPEWAAAASEVKEQTKGKVKLAAVDATVNQVLASRYGIRGFPTIKIFQKGESPVDYDGGRTRSDIVSRALDLFSDNAPPPELLEIINEDIAKRTCEEHQLCVVAVLPHILDTGAAGRNSYLEVLLKLADKYKKKMWGWLWTEAGAQSELETALGIGGFGYPAMAAINARKMKFALLKGSFSEQGINEFLRELSFGRGSTAPVGGGAFPTIVEREPWDGRDGELPVEDDIDLSDVELDDLGKDEL
binding [1]: binds

B2: Pdia4, endogenous (enzyme, UniProt P13667 21-645)
chain: VAGAEGPDEDSSNRENAIEDEEEEEEEDDDEEEDDLEVKEENGVLVLNDANFDNFVADKDTVLLEFYAPWCGHCKQFAPEYEKIANILKDKDPPIPVAKIDATSASVLASRFDVSGYPTIKILKKGQAVDYEGSRTQEEIVAKVREVSQPDWTPPPEVTLVLTKENFDEVVNDADIILVEFYAPWCGHCKKLAPEYEKAAKELSKRSPPIPLAKVDATAETDLAKRFDVSGYPTLKIFRKGRPYDYNGPREKYGIVDYMIEQSGPPSKEILTLKQVQEFLKDGDDVIIIGVFKGESDPAYQQYQDAANNLREDYKFHHTFSTEIAKFLKVSQGQLVVMQPEKFQSKYEPRSHMMDVQGSTQDSAIKDFVLKYALPLVGHRKVSNDAKRYTRRPLVVVYYSVDFSFDYRAATQFWRSKVLEVAKDFPEYTFAIADEEDYAGEVKDLGLSESGEDVNAAILDESGKKFAMEPEEFDSDTLREFVTAFKKGKLKPVIKSQPVPKNNKGPVKVVVGKTFDSIVMDPKKDVLIEFYAPWCGHCKQLEPVYNSLAKKYKGQKGLVIAKMDATANDVPSDRYKVEGFPTIYFAPSGDKKNPVKFEGGDRDLEHLSKFIEEHATKLSRTKEEL
binding [1]: binds

B4: Txn (thioredoxin), endogenous, P10599 1-105 (protein)
chain: MVKQIESKTAFQEALDAAGDKLVVVDFSATWCGPCKMIKPFFHSLSEKYSNVIFLEVDVDDCQDVASECEVKCMPTFQFFKKGQKVGEFSGANKEKLEATINELV
binding [2]: binds
